{
  "source": "patent US5849771A",
  "about": "“Phosphorylated nitrone derivatives, method for preparing same, and compositions containing said derivatives” (Centre National de la Recherche Scientifique (C.N.R.S.), priority 1995, dated 1998)",
  "key": {"[1]": {"experiment": "EPR spin trapping of HO^. radicals (Fenton's method)", "conditions": "adduct PPN--OH", "description": "In this experiment the HO^. radicals were produced by Fenton's method in a 1.1M phosphate buffer at pH=7 in the presence of the […] system. This classical reaction for producing HO^. radicals can be expressed more simply as follows:\nH2 O2 +Fe(II)→HO^. +HO-+Fe(III).\nThe EPR spectrum of the adduct from trapping is recorded approximately 40 s after addition of the ferrous sulphate.\n(§1) The stability of these adducts makes it possible to measure the respective coupling constants of the unpaired electron with the nuclei of nitrogen (AN), of hydrogen β to the nitrogen atom (AH) and of phosphorus (AP). These values have been shown together in Table 3 which follows: […]"}, "[2]": {"experiment": "EPR spin trapping of O2^.-/HOO^. radicals (hypoxanthine/xanthine oxidase system)", "conditions": "adduct PPN--OOH", "description": "For the production of the HOO^. radicals the hypoxanthine/xanthine oxidase system is employed in a 0.1M phosphate buffer maintained at ambient temperature. The oxygen resulting in the formation of the HOO^. radicals is that initially dissolved in the 0.1M phosphate buffer.\nThe hypoxanthine/xanthine oxidase system contains 0.1M of a phosphate buffer, […] of hypoxanthine, 1 mM of diethylenetriaminepentaacetic acid (DTPA), 0.4 units cm^-3 of xanthine oxidase (marketed by the company Boehringer Mannheim Biochemica Co.), and 0.1M of the nitrone being tested. The EPR spectra of the adducts from trapping are recorded approximately 40 s after the addition of xanthine oxidase.\nas §1"}},
  "data": [
    {"compound": "CCOP(=O)(OCC)C(C)(C)N([O])C(O)c1ccccc1", "note": "(stereo not drawn) [PPN--OH]", "values": [
      {"measurement": "AH, coupling constant with hydrogen β to the nitrogen atom", "setting": "[1]", "value": 14.6, "unit": "G"},
      {"measurement": "AN, coupling constant of the unpaired electron with the nucleus of nitrogen", "setting": "[1]", "value": 2.7, "unit": "G"},
      {"measurement": "AP, coupling constant with phosphorus", "setting": "[1]", "value": 43.2, "unit": "G"}
    ]},
    {"compound": "CCOP(=O)(OCC)C(C)(C)N([O])C(OO)c1ccccc1", "note": "(stereo not drawn) [PPN--OOH]", "values": [
      {"measurement": "AH, coupling constant with hydrogen β to the nitrogen atom", "setting": "[2]", "value": 13.5, "unit": "G"},
      {"measurement": "AN, coupling constant of the unpaired electron with the nucleus of nitrogen", "setting": "[2]", "value": 2.1, "unit": "G"},
      {"measurement": "AP, coupling constant with phosphorus", "setting": "[2]", "value": 41.3, "unit": "G"}
    ]}
  ]
}
